These results are taken from publication PMC7596997.

For this assay, the target named is T1, cytosolic domain of yeast Tom70 (His-Tom70_(38–617)) (yeast (Saccharomyces cerevisiae)) (UniProt P07213).
T1 sequence: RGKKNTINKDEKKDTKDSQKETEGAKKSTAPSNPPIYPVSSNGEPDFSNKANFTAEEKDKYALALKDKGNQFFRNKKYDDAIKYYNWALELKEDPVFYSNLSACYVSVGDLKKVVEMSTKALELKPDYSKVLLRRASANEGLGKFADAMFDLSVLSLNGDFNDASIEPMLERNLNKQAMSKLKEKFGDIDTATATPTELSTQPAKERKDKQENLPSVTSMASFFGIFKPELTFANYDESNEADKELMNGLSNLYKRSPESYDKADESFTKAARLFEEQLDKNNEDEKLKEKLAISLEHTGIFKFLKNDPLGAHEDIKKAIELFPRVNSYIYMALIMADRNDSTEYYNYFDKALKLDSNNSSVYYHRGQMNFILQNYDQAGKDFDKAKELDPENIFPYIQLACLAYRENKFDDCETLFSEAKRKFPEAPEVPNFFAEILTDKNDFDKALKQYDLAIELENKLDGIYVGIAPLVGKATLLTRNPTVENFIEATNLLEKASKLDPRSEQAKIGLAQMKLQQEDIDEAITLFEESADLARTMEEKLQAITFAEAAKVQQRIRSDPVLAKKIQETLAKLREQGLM
Kind of assay: pull-down; purified His-Tom70cd (50 pmol per 100 μl) pre-bound to Ni-NTA beads, incubated 40 min at 30 °C with typically 7% (v/v) reticulocyte lysate containing the [35S]-labelled protein; 10 mM MOPS/KOH, 20 mM imidazole, 150 mM KCl, 1% BSA, pH 7.2; eluted with 1 M imidazole, SDS-PAGE, phosphorimager; in some samples the bead-bound Tom70cd was pretreated with NEM and washed before the lysate was added; only the target purified.

No constants are given. Whether binding was seen depends on the method and setting. Binding seen in cells or lysates may run through a third protein. Some results given as binding are weak or reduced against the parent protein; the word gives no strength. Where a sequence is shown, tags or fusion partners need not be part of it.

B1: yeast adenine nucleotide transporter Ant1p (protein, UniProt Q06497 1-328)
chain: MLTLESALTGAVASAMANIAVYPLDLSKTIIQSQVSPSSSEDSNEGKVLPNRRYKNVVDCMINIFKEKGILGLYQGMTVTTVATFVQNFVYFFWYTFIRKSYMKHKLLGLQSLKNRDGPITPSTIEELVLGVAAASISQLFTSPMAVVATRQQTVHSAESAKFTNVIKDIYRENNGDITAFWKGLRTGLALTINPSITYASFQRLKEVFFHDHSNDAGSLSAVQNFILGVLSKMISTLVTQPLIVAKAMLQSAGSKFTTFQEALLYLYKNEGLKSLWKGVLPQLTKGVIVQGLLFAFRGELTKSLKRLIFLYSSFFLKHNGQRKLAST
In the case of B1, the binding entry is reported as “binds”.
